# The campaign covered roughly 52,000 sequences. About 210 (0.4%) were called active.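 The calls were made as follows: active = gene whose silencing raises cell survival under the drug, median off-target-corrected z-score across its silencing RNAs 2 or more; inactive = the rest.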 The list shows a part of the results.
# Experiment: Resistance to Poly (ADP-Ribose) Polymerase inhibitor: Gene Identification via Genome-wide siRNA Screen
# Details: mouse BRCA2 R2336H ES cells, olaparib, CellTiter-Glo viability; active compounds read high
# Outline: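 Genome-wide siRNA screen (3 siRNAs/gene, 20 nM) in mouse ES cells carrying hypomorphic BRCA2 R2336H; olaparib 500 nM added 48 h post-transfection, CellTiter-Glo viability 72 h later. Normalized to plate-median negative control; MAD z-scores, gene median, seed-adjusted.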
row,Sequence,z-score
1,GGAUGCUUUAACUUCAAACTT against A930001N09Rik,inactive: 0.819
2,GGGCCCUUGACCUACCAUUTT against D830044D21Rik,inactive: -0.706
3,GCUCGGUUAAGAGCCCAUGTT against Pabpnl1,inactive: 2.1
4,CCAUACUGGCAUACCUUGCTT against Mrgprb8,inactive: -0.973
5,GGUUGCCUCUUAAAUGUUGTT against Nyx,inactive: 1.07
6,GGACCUAUACAAGGGAGGUTT against Il1f10,inactive: 0.177
7,GCCGAUCAGAUGUAAUUCUTT against 6030411F23Rik,inactive: -1.21
8,GGAGACAGGUGCUACAACUTT against Lin28,inactive: -0.362
9,CGGCACUAAACUUCGUGAGTT against 1700084P21Rik,inactive: -0.031
10,GGCUAUCCUGGAAAAAGAGTT against C330005L02Rik,inactive: -0.73
11,GGUUCUGAUAGCUCAAGAGTT against Polr2b,inactive: -2.41
12,CGACACAUAUGCUAGCUUGTT against Slc7a5,inactive: 0.659
13,CCAAUGUAAGACACGAUGUTT against Gpr151,inactive: 1.5
14,GGCUAAAAGUAGUGAAUGATT against Ccr2,inactive: -0.373
15,GCAUUUCGACGCGGCUUUUTT against Snapc1,inactive: -2.45
16,GGAGUACAAAGAAAGGAACTT against 2610033H07Rik,inactive: -1.03
17,GGUACUAUGAAGACUUAGATT against MGC37347,inactive: -1.2
18,GCUCAGACCGUGAUUGUAUTT against 1620401E04Rik,inactive: 0.961
19,GGUACCUUAUGUUUACAAUTT against A430010J10Rik,inactive: -0.25
20,GGAACUAAAUCUUCCAUCCTT against Chit1,inactive: -0.42
21,GGUGCCUUCUGUAAACGAGTT against Foxc2,inactive: 1.1
22,GGAGAAAAACAUCUAAGUGTT against 1810030N24Rik,inactive: 1.14
23,CCCUUCUAUUUGAACAUAUTT against A530032D15Rik,inactive: -1.99
24,GGUAAAGGUGUAUUCGGGUTT against Ifngr1,inactive: 2.76
25,GGCAUCCAUGAAAAACUCUTT against Aqp9,inactive: -0.504
26,GCUGCUGAUAACAUCCGACTT against Golga5,inactive: 0.845

# In another format: entries from further up
row	Sequence	z-score
17	GGUACUAUGAAGACUUAGATT against MGC37347	inactive: -1.2
25	GGCAUCCAUGAAAAACUCUTT against Aqp9	inactive: -0.504

# (continued)

row,Sequence,z-score
1,GGAUAUCACAUAGCAUCGGTT against 1700025G04Rik,inactive: -0.0114
2,GGUGAGCGUGUAGAGAUGCTT against Fbxo45,inactive: 0.147
3,GGAGUAGCAGAGCUUCUGGTT against S100a8,inactive: 1.36
4,GGCCUUGCGUCUCAACCUUTT against 1810029B16Rik,inactive: -1.86
5,GCCAAUGGGUUGGUAAGAUTT against C030019I05Rik,inactive: -1.58
6,CCAGCUCUGGUUUAUUGAATT against Neurog2,inactive: 0.341
7,GGAAGAAAAAUAUGCUUUCTT against Pls3,inactive: -0.75
8,GGCUUUGCUCCUGAUAAACTT against Vnn3,inactive: 0.135
9,GGAAACCUGGCAUAACUUUTT against Pax9,inactive: 1.09
10,GGUACCAGGGAGUGACAUUTT against Itgae,inactive: -1.47
11,GGCCAUCGAGGUGAUGUACTT against Tpst2,inactive: -2.43
12,CCAACACCCAAUAAUAGCGTT against 6.33E+19,inactive: -0.777
13,GCUCAAUUCGGACAACAAGTT against Smad7,inactive: 2.18
14,GGGUCAUGUAUAGUUUGUGTT against Dnajc8,inactive: -1.51
15,CGUGAAAUAGAUGAUACCUTT against Cdc5l,inactive: -0.394
16,GGAAUUGAACAAAACCAUCTT against 9830137M10Rik,inactive: 0.976
17,GGAACGAACUCAUUAAAACTT against Abhd3,inactive: 0.207
18,CCCUCAGUUGGUCACAUGUTT against Brp44l,inactive: 2.34
19,GGCAUCUUGACCUUGAAGUTT against 4732495G21Rik,inactive: -0.102
20,CCAGCAUCUACUGUCUGACTT against Sstr1,inactive: -1.73
21,CGGAGAAGUGACGUAUUCUTT against Pcdhga4,inactive: 1.54
22,CCUUAAUCACCACCUUCAUTT against D730040F13Rik,inactive: 0.531
23,GGUCACCUUAUAAUUGCCCTT against Btd,inactive: -0.292
24,GGUCUGGAUGCUUUAGAAUTT against 9130005N14Rik,inactive: 0.472
25,GGGUUUGUUUCCAGGACAATT against E130308A19Rik,inactive: 0.0485
